Test results reported in the supplement of paper PMC10849652.
Some of the results follow.

Sequences of proteins named here, by UniProt entry; tags and fusion partners are left off. A change or cut given only in a name is not applied to a line headed by its entry.
UniProt Q8NBP0: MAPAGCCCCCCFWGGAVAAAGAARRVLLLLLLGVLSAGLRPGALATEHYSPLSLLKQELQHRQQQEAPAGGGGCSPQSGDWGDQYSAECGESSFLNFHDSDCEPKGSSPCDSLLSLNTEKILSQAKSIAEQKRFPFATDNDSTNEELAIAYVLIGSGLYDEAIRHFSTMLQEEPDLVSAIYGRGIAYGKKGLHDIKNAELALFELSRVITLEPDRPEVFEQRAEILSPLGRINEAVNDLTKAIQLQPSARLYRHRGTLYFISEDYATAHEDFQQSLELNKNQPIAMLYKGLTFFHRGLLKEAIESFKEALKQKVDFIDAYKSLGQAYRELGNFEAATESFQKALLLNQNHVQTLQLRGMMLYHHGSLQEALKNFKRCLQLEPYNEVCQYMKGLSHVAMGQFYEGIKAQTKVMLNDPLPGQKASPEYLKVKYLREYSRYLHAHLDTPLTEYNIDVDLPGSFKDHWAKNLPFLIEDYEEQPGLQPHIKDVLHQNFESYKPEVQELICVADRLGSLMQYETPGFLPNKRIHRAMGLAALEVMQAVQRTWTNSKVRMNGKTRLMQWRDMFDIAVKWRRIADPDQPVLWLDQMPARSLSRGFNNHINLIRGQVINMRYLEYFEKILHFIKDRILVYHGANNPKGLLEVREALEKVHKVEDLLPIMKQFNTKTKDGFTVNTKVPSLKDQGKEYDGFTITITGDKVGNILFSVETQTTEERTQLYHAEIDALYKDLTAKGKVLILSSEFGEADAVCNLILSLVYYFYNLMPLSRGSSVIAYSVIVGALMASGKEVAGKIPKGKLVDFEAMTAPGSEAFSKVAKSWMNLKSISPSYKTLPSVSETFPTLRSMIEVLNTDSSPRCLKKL
UniProt Q16762: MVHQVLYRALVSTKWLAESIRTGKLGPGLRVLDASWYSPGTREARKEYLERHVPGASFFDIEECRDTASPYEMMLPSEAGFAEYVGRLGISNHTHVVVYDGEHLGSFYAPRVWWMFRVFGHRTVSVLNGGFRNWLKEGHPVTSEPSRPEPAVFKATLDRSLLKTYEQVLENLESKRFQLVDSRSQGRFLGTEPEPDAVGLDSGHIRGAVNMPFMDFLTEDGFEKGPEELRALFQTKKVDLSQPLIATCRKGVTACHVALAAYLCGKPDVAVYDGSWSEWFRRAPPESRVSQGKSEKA
UniProt Q9H892: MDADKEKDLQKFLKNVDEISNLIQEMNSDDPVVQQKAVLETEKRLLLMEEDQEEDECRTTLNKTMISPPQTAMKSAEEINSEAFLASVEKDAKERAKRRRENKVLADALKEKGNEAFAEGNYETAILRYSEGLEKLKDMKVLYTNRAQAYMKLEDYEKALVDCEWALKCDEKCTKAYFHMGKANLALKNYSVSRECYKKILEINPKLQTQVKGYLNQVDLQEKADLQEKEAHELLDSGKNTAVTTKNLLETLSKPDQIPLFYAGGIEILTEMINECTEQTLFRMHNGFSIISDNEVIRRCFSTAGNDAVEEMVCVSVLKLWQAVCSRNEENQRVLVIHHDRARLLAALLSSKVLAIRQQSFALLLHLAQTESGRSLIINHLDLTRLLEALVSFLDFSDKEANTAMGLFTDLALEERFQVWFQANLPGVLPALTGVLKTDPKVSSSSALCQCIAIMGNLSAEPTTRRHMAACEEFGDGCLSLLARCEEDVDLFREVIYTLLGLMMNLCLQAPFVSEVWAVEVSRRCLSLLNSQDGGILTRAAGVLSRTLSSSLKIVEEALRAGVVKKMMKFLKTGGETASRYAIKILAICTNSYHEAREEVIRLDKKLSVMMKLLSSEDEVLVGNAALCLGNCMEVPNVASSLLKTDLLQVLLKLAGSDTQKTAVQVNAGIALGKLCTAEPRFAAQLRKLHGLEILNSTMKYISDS
UniProt Q9UJT1: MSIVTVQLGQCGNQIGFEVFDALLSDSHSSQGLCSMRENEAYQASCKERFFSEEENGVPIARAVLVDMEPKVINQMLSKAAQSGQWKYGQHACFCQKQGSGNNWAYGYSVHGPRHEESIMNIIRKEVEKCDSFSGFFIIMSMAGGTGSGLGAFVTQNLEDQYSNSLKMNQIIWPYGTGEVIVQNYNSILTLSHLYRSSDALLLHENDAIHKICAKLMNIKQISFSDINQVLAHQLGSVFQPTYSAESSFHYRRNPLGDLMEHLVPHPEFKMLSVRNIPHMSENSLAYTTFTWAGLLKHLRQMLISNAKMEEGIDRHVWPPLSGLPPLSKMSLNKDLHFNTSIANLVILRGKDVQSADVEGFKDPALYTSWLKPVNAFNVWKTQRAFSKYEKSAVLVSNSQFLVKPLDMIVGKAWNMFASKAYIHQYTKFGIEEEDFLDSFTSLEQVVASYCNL
UniProt Q9NX01: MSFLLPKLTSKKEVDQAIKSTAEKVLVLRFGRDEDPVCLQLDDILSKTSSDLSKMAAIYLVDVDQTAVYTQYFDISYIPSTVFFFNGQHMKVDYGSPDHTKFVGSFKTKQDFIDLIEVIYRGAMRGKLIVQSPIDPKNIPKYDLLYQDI
UniProt P51965: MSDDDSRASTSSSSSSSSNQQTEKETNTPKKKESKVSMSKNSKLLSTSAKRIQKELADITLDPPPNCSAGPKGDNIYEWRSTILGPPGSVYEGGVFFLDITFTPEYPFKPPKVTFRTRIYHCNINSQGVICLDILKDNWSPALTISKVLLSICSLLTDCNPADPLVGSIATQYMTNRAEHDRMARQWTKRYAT
UniProt Q14157: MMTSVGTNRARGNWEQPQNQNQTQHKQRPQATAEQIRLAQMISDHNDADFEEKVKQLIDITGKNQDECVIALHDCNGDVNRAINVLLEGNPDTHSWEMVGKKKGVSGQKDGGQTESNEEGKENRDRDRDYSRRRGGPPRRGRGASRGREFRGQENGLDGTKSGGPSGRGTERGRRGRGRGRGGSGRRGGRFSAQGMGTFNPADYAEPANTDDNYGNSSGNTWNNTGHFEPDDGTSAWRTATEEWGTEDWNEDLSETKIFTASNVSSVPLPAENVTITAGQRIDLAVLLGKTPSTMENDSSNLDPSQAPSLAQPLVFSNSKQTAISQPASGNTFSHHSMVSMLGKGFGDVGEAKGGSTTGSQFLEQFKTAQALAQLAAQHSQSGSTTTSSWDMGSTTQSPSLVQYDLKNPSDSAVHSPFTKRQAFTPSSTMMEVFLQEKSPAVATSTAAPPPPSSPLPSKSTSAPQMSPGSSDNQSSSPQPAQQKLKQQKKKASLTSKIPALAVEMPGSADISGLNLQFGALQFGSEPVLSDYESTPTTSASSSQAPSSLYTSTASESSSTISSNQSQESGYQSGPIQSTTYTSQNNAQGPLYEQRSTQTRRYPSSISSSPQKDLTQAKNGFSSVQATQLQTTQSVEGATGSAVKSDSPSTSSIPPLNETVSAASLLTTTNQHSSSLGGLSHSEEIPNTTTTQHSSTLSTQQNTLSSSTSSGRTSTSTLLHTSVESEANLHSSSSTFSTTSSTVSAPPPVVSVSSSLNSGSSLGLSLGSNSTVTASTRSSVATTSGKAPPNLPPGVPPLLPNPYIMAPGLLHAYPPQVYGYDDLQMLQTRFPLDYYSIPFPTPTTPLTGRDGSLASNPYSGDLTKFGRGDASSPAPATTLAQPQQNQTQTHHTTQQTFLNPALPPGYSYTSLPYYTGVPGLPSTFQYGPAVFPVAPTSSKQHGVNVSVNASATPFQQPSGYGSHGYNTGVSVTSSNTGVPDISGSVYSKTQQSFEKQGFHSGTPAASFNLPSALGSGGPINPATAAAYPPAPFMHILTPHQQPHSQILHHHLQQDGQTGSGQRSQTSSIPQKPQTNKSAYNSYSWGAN
UniProt P29597: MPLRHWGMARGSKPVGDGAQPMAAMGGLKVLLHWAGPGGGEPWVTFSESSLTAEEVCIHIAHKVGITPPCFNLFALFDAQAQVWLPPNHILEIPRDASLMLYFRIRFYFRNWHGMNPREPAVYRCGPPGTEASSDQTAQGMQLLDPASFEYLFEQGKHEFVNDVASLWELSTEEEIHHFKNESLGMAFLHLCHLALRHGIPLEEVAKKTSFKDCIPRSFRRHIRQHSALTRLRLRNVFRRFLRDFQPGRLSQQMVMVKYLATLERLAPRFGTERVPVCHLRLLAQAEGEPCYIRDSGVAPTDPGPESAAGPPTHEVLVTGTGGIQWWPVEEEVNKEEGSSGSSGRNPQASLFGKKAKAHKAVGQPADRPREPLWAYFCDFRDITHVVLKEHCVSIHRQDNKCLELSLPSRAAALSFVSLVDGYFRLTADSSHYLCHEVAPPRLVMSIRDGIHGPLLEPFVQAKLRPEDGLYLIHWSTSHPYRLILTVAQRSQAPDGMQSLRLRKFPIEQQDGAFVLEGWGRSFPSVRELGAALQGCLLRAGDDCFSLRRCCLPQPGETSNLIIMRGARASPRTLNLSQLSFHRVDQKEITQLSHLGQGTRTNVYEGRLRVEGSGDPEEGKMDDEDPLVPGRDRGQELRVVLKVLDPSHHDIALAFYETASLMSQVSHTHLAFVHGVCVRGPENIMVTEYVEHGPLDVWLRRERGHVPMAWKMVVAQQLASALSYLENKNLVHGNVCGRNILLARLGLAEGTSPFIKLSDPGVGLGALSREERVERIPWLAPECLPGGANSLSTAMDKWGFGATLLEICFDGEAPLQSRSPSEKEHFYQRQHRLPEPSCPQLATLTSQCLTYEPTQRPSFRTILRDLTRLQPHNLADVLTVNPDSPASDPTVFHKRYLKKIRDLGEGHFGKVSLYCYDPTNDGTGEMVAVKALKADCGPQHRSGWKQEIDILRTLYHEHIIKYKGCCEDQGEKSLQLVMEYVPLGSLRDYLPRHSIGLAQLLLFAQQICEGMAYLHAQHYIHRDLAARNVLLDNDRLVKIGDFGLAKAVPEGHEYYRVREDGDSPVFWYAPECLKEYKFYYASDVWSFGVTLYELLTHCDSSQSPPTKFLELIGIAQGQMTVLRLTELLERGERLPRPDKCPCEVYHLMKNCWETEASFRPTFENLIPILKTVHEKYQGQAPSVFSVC
UniProt Q3B726, whole entry, looked up: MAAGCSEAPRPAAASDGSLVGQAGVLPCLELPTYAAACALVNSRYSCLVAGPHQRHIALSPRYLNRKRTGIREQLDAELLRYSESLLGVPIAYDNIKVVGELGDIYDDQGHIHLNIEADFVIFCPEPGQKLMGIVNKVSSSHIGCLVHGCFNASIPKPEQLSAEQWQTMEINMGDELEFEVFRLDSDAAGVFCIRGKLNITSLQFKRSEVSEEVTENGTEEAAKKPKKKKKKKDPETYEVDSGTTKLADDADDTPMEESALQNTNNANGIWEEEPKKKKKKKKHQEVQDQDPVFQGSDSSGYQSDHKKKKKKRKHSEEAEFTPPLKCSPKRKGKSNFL
UniProt Q96N46: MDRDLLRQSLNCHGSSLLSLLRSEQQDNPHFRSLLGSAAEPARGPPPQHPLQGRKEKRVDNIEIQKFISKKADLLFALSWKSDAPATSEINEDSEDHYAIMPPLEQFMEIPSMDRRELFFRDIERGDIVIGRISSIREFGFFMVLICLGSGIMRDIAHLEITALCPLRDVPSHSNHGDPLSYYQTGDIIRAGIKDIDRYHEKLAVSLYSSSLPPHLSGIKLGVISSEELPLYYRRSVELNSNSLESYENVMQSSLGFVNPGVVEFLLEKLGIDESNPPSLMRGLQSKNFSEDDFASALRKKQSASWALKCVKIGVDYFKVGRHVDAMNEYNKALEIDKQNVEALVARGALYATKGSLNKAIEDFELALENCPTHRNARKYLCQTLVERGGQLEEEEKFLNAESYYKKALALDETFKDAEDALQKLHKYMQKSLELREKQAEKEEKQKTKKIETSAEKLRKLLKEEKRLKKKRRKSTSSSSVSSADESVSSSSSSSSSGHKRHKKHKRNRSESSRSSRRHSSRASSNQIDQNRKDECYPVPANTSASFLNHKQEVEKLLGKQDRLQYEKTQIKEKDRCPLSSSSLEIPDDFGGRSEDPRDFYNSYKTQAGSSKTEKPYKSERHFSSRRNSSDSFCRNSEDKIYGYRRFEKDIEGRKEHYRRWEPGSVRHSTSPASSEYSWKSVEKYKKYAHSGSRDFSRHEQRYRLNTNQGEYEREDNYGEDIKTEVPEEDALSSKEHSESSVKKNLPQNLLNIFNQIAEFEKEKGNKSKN
UniProt Q86VQ3: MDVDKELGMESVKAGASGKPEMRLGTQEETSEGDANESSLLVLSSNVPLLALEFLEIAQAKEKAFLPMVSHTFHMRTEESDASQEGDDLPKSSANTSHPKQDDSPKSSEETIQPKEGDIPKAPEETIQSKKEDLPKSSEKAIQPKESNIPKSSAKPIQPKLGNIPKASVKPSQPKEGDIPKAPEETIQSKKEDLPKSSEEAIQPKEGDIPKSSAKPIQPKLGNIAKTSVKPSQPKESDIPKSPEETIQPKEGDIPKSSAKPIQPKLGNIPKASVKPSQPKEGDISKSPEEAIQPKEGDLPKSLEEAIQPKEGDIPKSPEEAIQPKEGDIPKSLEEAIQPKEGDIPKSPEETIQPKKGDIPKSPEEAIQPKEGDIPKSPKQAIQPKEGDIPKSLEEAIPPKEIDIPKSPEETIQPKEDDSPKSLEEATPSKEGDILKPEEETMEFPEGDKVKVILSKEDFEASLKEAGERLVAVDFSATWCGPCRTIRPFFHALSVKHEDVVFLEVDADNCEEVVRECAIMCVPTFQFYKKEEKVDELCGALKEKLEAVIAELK

Columns and labels:
Test in all cases: log2 fold change, soluble protein after heating vs DMSO (PISA); higher = thermal stabilisation; K562 cells, 10 uM, 30 min; active = over 0.2 and 3.5 SD of the protein, either way, in both replicates (recomputed)
[1] = compound: COC1=CC=C(C=C1)CN2C=CC3=C2C=C(C=C3)C(=O)NO
Outline: (§1)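 Thermal stability values are relative to control samples and come from duplicates. They are expressed as log2 fold changes. For measurement, K562 cells (2×10^6 cells/mL) received 10 μM compound for 30 min, and aliquots were heated for 3 min over 48°C-58°C, pooled, and extracted at 4°C in PBS with 0.5% NP-40. Soluble protein, the supernatant after 21,000xg for 90 min, was quantified by TMTpro 16plex LC-MS/MS with equalised channel sums.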

filanesib = compound: CON(C)C(=O)N1N=C(c2cc(F)ccc2F)S[C@@]1(CCCN)c1ccccc1 [filanesib]
Outline: as §1

zotarolimus = compound: CO[C@H]1C[C@@H]2CC[C@@H](C)[C@@](O)(O2)C(=O)C(=O)N2CCCC[C@H]2C(=O)O[C@H]([C@H](C)C[C@@H]2CC[C@H](n3cnnn3)[C@H](OC)C2)CC(=O)[C@H](C)/C=C(\C)[C@@H](O)[C@@H](OC)C(=O)[C@H](C)C[C@H](C)/C=C/C=C/C=C/1C [zotarolimus]
Outline: as §1

idasanutlin = compound: COc1cc(C(=O)O)ccc1NC(=O)[C@@H]1N[C@@H](CC(C)(C)C)[C@](C#N)(c2ccc(Cl)cc2F)[C@H]1c1cccc(Cl)c1F [idasanutlin]
Outline: as §1

pictilisib = compound: CS(=O)(=O)N1CCN(Cc2cc3nc(-c4cccc5[nH]ncc45)nc(N4CCOCC4)c3s2)CC1 [pictilisib]
Outline: as §1

[2] = compound: CS(=O)(=O)c1ccc(-c2cnc(N)c(C(=O)Nc3ccccc3)n2)cc1
Outline: as §1

crizotinib = compound: C[C@@H](Oc1cc(-c2cnn(C3CCNCC3)c2)cnc1N)c1c(Cl)ccc(F)c1Cl [crizotinib]
Outline: as §1

[3] = compound: C[C@H](C1=CC=C(C=C1)C(=O)NC2=C3C=CNC3=NC=C2)N
Outline: as §1

duvelisib = compound: C[C@H](Nc1ncnc2nc[nH]c12)c1cc2cccc(Cl)c2c(=O)n1-c1ccccc1 [duvelisib]
Outline: as §1

gandotinib = compound: Cc1cc(Nc2cc(CN3CCOCC3)c3nc(C)c(Cc4ccc(Cl)cc4F)n3n2)n[nH]1 [gandotinib]
Outline: as §1

tozasertib = compound: Cc1cc(Nc2cc(N3CCN(C)CC3)nc(Sc3ccc(NC(=O)C4CC4)cc3)n2)n[nH]1 [tozasertib]
Outline: as §1

[4] = compound: Cc1cc(SCc2sc(-c3ccc(C(F)(F)F)cc3)nc2C)ccc1OCC(=O)O
Outline: as §1

doramapimod = compound: Cc1ccc(-n2nc(C(C)(C)C)cc2NC(=O)Nc2ccc(OCCN3CCOCC3)c3ccccc23)cc1 [doramapimod]
Outline: as §1

ispinesib = compound: Cc1ccc(C(=O)N(CCCN)[C@@H](c2nc3cc(Cl)ccc3c(=O)n2Cc2ccccc2)C(C)C)cc1 [ispinesib]
Outline: as §1

alisertib = compound: COc1cc(Nc2ncc3c(n2)-c2ccc(Cl)cc2C(c2c(F)cccc2OC)=NC3)ccc1C(=O)O [alisertib]
Outline: as §1

[5] = compound: COc1cc2nc(-c3cc(F)ccc3O)nc(N[C@@H]3CNC[C@H]3C(C)(C)O)c2cc1OC
Outline: as §1

gefitinib = compound: COc1cc2ncnc(Nc3ccc(F)c(Cl)c3)c2cc1OCCCN1CCOCC1 [gefitinib]
Outline: as §1

[6] = compound: COc1cccc2cc(-c3nc([C@H]4CC[C@H](C(=O)O)CC4)n4ncnc(N)c34)[nH]c12
Outline: as §1

lapatinib = compound: CS(=O)(=O)CCNCc1ccc(-c2ccc3ncnc(Nc4ccc(OCc5cccc(F)c5)c(Cl)c4)c3c2)o1 [lapatinib]
Outline: as §1

[7] = compound: C[C@@H]1COCCN1C2=NC(=NC(=C2)C3(CC3)S(=O)(=O)C)C4=C5C=CNC5=CC=C4
Outline: as §1

Measured: log2 fold change

TTC13 (UniProt Q8NBP0)
inactive: [1] -0.203 | filanesib 0.26 | zotarolimus 0.057 | idasanutlin -0.058 | pictilisib 0.054 | [2] 0.085 | crizotinib -0.212 | [3] 0.034 | duvelisib 0 | gandotinib 0.142 | tozasertib 0.062 | [4] 0.041 | doramapimod 0.191 | ispinesib -0.143

TST (UniProt Q16762)
inactive: [1] 0.119 | filanesib -0.037 | zotarolimus -0.163 | idasanutlin -0.032 | alisertib 0.225 | [5] 0.149 | gefitinib 0.052 | [6] -0.056 | lapatinib -0.021 | [2] -0.016 | crizotinib -0.119 | [7] 0.062 | [3] 0.299 | duvelisib 0.11 | [4] -0.041 | doramapimod -0.007

UBA1 (UniProt P22314)
inactive: [1] 0.029 | filanesib -0.077 | zotarolimus -0.021 | idasanutlin -0.014 | alisertib 0.05 | [5] 0.047 | gefitinib 0.05 | [6] -0.053 | lapatinib -0.06 | pictilisib -0.019 | [2] 0.127 | crizotinib -0.338 | [7] 0.091 | [3] 0.017 | gandotinib -0.068 | [4] 0.148 | doramapimod -0.031 | ispinesib -0.11

TUBB2B (UniProt Q9BVA1)
inactive: [1] -0.055 | filanesib -0.005 | zotarolimus 0.015 | idasanutlin 0.045 | [5] 0.115 | gefitinib 0.025 | lapatinib -0.013 | pictilisib -0.157 | [2] 0.092 | crizotinib 0.165 | [3] 0.04 | duvelisib -0.116 | gandotinib 0.097 | tozasertib 0.048 | [4] 0.1 | doramapimod -0.013 | ispinesib -0.071

TTC12 isoform 2 (UniProt Q9H892)
inactive: [1] -0.393 | filanesib 0.473 | zotarolimus -0.224 | alisertib 0.022 | gefitinib -0.04 | [6] 0.085 | [2] -0.043 | crizotinib -0.04 | [7] -0.318 | [3] 0.368 | duvelisib -0.143 | tozasertib 0.033 | [4] 0.017 | doramapimod 0.19 | ispinesib -0.078

TUBD1 (UniProt Q9UJT1)
inactive: [1] -0.104 | filanesib -0.014 | idasanutlin 0.156 | [5] 0.335 | lapatinib -0.186 | [2] 0.072 | crizotinib -0.115 | doramapimod 0.215 | ispinesib -0.075

TXNL4B (UniProt Q9NX01)
inactive: [1] 0.011 | filanesib -0.034 | zotarolimus -0.008 | idasanutlin -0.147 | alisertib 0.097 | [5] 0.106 | gefitinib 0.042 | [6] -0.064 | lapatinib -0.003 | pictilisib -0.003 | [2] 0.22 | crizotinib 0.309 | [3] 0.008 | gandotinib -0.024 | [4] 0.054 | doramapimod 0.037 | ispinesib -0.017

UBE2E1 (UniProt P51965)
inactive: [1] 0.054 | filanesib -0.113 | idasanutlin -0.185 | alisertib -0.19 | [5] 0.033 | gefitinib -0.017 | [6] 0.288 | lapatinib 0.036 | pictilisib 0.053 | [2] -0.09 | crizotinib -0.144 | [7] 0.139 | duvelisib 0.033 | gandotinib -0.062 | tozasertib 0.026 | [4] 0.109 | doramapimod 0.022 | ispinesib -0.097

UBAP2L isoform 5 (UniProt Q14157)
inactive: [1] -0.026 | filanesib -0.014 | zotarolimus -0.03 | idasanutlin -0.047 | alisertib -0.034 | [5] 0 | gefitinib -0.019 | [6] 0.012 | lapatinib 0 | pictilisib -0.015 | [2] -0.028 | crizotinib 0.051 | [7] -0.07 | [3] -0.007 | gandotinib 0.007 | [4] 0.016 | doramapimod -0.038 | ispinesib 0.026

TYK2 (UniProt P29597)
inactive: filanesib 0.062 | [5] 0.007 | lapatinib 0.052 | [2] -0.022 | duvelisib 0.077 | [4] 0

TWISTNB (UniProt Q3B726)
inactive: filanesib 0.007 | zotarolimus 0.138 | alisertib -0.148 | [5] -0.027 | [6] -0.103 | lapatinib -0.007 | pictilisib -0.069 | [2] 0.085 | [7] 0.087 | [3] -0.024 | duvelisib -0.072 | gandotinib -0.103 | tozasertib -0.136 | [4] 0.22

TTC14 (UniProt Q96N46)
inactive: filanesib -0.077 | zotarolimus 0.006 | [2] 0.117 | [3] -0.012 | tozasertib 0.037

UBAP2L (UniProt F8W726)
inactive: alisertib -0.074 | [5] -0.069 | gefitinib -0.012 | [6] -0.084 | lapatinib 0.067 | pictilisib 0.078 | gandotinib -0.072

TXNDC2 (UniProt Q86VQ3)
inactive: filanesib -0.117 | idasanutlin -0.029 | [5] 0.001 | gefitinib -0.09 | lapatinib -0.037 | [2] 0.061 | duvelisib 0.27 | [4] -0.024 | ispinesib 0.014
